Results: patent US20130089513A1 (MEDEXGEN, published 2013)
Positions count from the first letter of the chain named. Names may count otherwise. These are yes or no findings as the source states them, for the method shown. Some binding calls cover weakened binding; strength is not graded here. Tags and fused reporters may be left off the sequences shown. Blank lines part the entries; values can stand above or below the molecule they belong to.

How the values were obtained:
[1] = target: T1, G-CSF receptor linked to Fc domain of human IgG (human) (UniProt Q99062); experiment: ELISA, coated G-CSF receptor-Fc
T1 sequence (looked up): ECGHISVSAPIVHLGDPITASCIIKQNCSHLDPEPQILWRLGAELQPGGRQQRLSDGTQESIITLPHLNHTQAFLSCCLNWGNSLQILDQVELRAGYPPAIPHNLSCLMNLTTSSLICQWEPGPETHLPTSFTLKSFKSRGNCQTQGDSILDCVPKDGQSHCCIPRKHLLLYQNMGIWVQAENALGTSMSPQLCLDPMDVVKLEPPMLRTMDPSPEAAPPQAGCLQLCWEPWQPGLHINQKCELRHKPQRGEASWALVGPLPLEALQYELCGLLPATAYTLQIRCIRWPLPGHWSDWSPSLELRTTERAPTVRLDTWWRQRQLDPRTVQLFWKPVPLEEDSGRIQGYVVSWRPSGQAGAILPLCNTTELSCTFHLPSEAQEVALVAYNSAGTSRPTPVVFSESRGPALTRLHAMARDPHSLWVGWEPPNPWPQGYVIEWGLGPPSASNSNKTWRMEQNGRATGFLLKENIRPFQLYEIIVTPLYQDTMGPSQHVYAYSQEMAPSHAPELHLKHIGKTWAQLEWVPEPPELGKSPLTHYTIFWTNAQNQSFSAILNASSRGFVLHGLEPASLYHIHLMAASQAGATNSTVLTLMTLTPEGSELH

[2] = target: T1, G-CSF receptor linked to Fc domain of human IgG (human); experiment: ELISA on coated G-CSF receptor-Fc, done like the TPO ELISA

binding [1]: binds
binding [2]: binds
Molecule: G-CSF-[F144V] (from UniProt P09919 31-207) (ligand)

binding [1]: binds
binding [2]: binds
B2: G-CSF-[F140V] (ligand)
chain: TPLGPASSLPQSFLLKCLEQVRKIQGDGAALQEKLCATYKLCHPEELVLLGHSLGIPWAPLSSCPSQALQLAGCLSQLHSGLFLYQGLLQALEGISPELGPTLDTLQLDVADFATTIWQQMEELGMAPALQPTQGAMPAVASAFQRRAGGVLVASHLQSFLEVSYRVLRHLAQP
notes: G-CSF mutein expressed in CHO-K1 cells; also called G-CSF-[F140VD]

Further lines, the molecule ahead of its results:

B1: wild type G-CSF (ligand)
chain: B2 chain with V140F
notes: cDNA from leukocytes of healthy people; expressed in CHO-K1 cells; also called G-CSF wild type
binding [1]: binds
binding [2]: binds

B3: G-CSF-[F160V] (ligand)
chain: B2 chain with V140F, F160V
notes: G-CSF mutein expressed in CHO-K1 cells
binding [1]: binds
binding [2]: binds
